Hit rate of the full screen: of about 300,000 compounds, about 3,700 (1.2%) were called active. Inconclusive means that the source gave no clear call. Such entries were picked first, then a sample of the others. Calls follow the shape of the full dose curve; tested in HEK293 cells. Potencies beside an inconclusive call are fits to weak or partial responses and may not hold up.
Assay: qHTS for Inhibitors of binding or entry into cells for Lassa Virus; also: nearly all actives have a fitted effect of over 50% in size
Conditions: Lassa virus pseudotype entry inhibition, cell reporter; series mostly up to 37.9 µM
In the case of `Cc1ccc2c(c1)c1c(c(=O)n(-c3ccccc3C)c(=O)n1CC(=O)c1ccc(Cl)cc1)n2C`, the Potency is reported as inconclusive: 6.31 µM [inhibitor, single point].
With `CC1OC(Nc2ccc(N=Nc3ccccc3)cc2)C(O)C(O)C1O` (centres undefined) the Potency was “inactive”.
In the case of `O=C(CSc1nnc2ccccn12)NNC(=O)c1ccc(Cl)cc1`, the Potency is reported as inconclusive: 31.6 µM [activator, single point].
For `Cc1c(C(=O)N2CCN(S(=O)(=O)c3ccc(F)cc3)CC2)oc2ccccc12`, the Potency was “inactive”.
For `C=CCn1c(=O)/c(=C\c2ccccn2)s/c1=C(/C#N)C(=O)NCC1CCCO1` (centres undefined), the Potency was inconclusive: 7.08 µM [activator, partial curve, poor fit].
With `COc1ccc(NC(=O)c2sc3nc4c(cc3c2N)N2CCC4CC2)cc1OC` the Potency was inconclusive: 35.5 µM [inhibitor, single point].
In the case of `S=C(NCCc1ccccc1)N1CCN(C(c2ccccc2)c2ccccc2)CC1`, the Potency is reported as inconclusive: 14.1 µM [inhibitor, single point].
In the case of `CN1CCC(C(=O)C(=O)O)C1=O` (centres undefined), the Potency is reported as “inactive”.
With `O=C(CN1CCN(Cc2ccc(Cl)cc2)CC1)N/N=C/C=C/c1ccccc1[N+](=O)[O-]` the Potency was inconclusive: 0.651 µM [inhibitor, partial curve, poor fit].
In the case of `CCc1ccc(/C=C2\SC(N3CCOCC3)=NC2=O)cc1`, the Potency is reported as inconclusive: 7.08 µM [inhibitor, partial curve, poor fit].
With `Cc1ccc(C)c(NC(=O)CN(C)C(=O)c2ccc(-c3ccc(Cl)cc3)o2)c1` the Potency was inconclusive: 35.5 µM [activator, single point].
In the case of `Cc1ccc(NC(=O)Nc2c[nH]c(=O)[nH]c2=O)c(Cl)c1`, the Potency is reported as “inactive”.
In the case of `CCOc1ccc(/C=C2/SC(=O)NC2=S)cc1`, the Potency is reported as inconclusive: 20 µM [activator, single point].
In the case of `COC(=O)Cc1ccc2sc(-c3ccccc3)nc2c1`, the Potency is reported as inconclusive: 10 µM [inhibitor, partial curve, poor fit].
With `CCOc1ccc(CNC(=O)c2ccc3[nH]c(C)c(C)c3c2)cc1OC` the Potency was inconclusive: 7.94 µM [inhibitor, partial curve, poor fit].
In the case of `O=C1CSC(c2ccccc2[N+](=O)[O-])N1c1cccc(F)c1` (centres undefined), the Potency is reported as “inactive”.
With `CCc1ccc(NC(=O)N(Cc2c[nH]c3ccccc23)C2CCCCC2)cc1` the Potency was inconclusive: 6.31 µM [inhibitor, single point].
In the case of `Cc1ccc(-n2c(=O)c3c(cnn3C)n(Cc3ccc(Cl)cc3)c2=O)cc1`, the Potency is reported as “inactive”.
With `C=CCN1C(=O)/C(=C\c2ccc(Oc3nc(N4CCOCC4)nc(N4CCOCC4)n3)c(OC)c2)SC1=S` the Potency was inconclusive: 7.08 µM [inhibitor, partial curve, poor fit].
In the case of `CCOc1ccc(/C=N/NC(=O)Cc2cccs2)cc1`, the Potency is reported as inconclusive: 11.2 µM [inhibitor, partial curve, poor fit].
For `CCOc1ccc(N(C(C)C(=O)NC2CCCCCC2)S(C)(=O)=O)cc1` (centres undefined), the Potency was inconclusive: 14.1 µM [inhibitor, single point].
With `CCOc1cc(C2c3c(n[nH]c3C)C(=O)N2c2ccc(C)cc2)ccc1O` (centres undefined) the Potency was “inactive”.
For `Cc1cc(C)c(C(=O)COC(=O)Cn2c(C)csc2=O)cc1C`, the Potency was “inactive”.
In the case of `Cc1ccc(C)c(S(=O)(=O)Nc2cc3c4c(c2)CC(=O)N4CCC3)c1`, the Potency is reported as inconclusive: 0.112 µM [inhibitor, full curve, poor fit].
In the case of `Cc1cc(NC(=O)CSc2nc3ccsc3c(=O)n2CCCCC(=O)O)no1`, the Potency is reported as “inactive”.
In the case of `O=C(COc1ccc(C(=S)N2CCCC2)cc1)Nc1ccc(F)cc1`, the Potency is reported as inconclusive: 22.4 µM [inhibitor, single point].
With `CC/C(C)=N/Nc1nc2c(c(=O)[nH]c(=O)n2C)n1Cc1ccccc1` the Potency was inconclusive: 35.5 µM [inhibitor, single point].
In the case of `O=C(Nc1ccc(Cl)c(Cl)c1)N1CCC(c2ccccc2)C1` (centres undefined), the Potency is reported as inconclusive: 6.31 µM [activator, partial curve, poor fit].
With `Cc1cccn2c(=O)cc(COc3cccc(NC(=O)c4ccccc4F)c3)nc12` the Potency was “inactive”.
For `Cc1nc(Nc2ccccc2)sc1C(=O)Nc1ccccc1`, the Potency was inconclusive: 8.91 µM [inhibitor, partial curve, poor fit].
In the case of `CCn1cc(C(=O)NCCCN2CCCCCC2)c(=O)c2cc(S(=O)(=O)N3CCc4ccccc4C3)ccc21`, the Potency is reported as inconclusive: 31.6 µM [inhibitor, single point].
With `Cc1cccc(NC(=S)NC(=O)/C=C/c2ccco2)c1` the Potency was inconclusive: 2.91 µM [inhibitor, full curve, poor fit].
For `CC(=O)Nc1ccc(-c2csc(N/N=C\c3ccncc3)n2)cc1`, the Potency was “inactive”.
With `COc1ccc(Br)cc1CNC(=O)CN1CCSc2ccccc21` the Potency was inconclusive: 5.62 µM [inhibitor, single point].
For `CCC(C)Nc1nc2c(c(=O)n(C)c(=O)n2C)n1Cc1cccc(C)c1` (centres undefined), the Potency was inconclusive: 1.26 µM [inhibitor, full curve].
For `CCc1cccc2c(C(=O)CN3C(=O)NC4(CCCCCC4)C3=O)c[nH]c12`, the Potency was inconclusive: 7.08 µM [inhibitor, full curve].
For `CCC1CCCCN1C(=O)CCNC(=O)Cn1cnc2ccccc2c1=O` (centres undefined), the Potency was inconclusive: 3.16 µM [inhibitor, single point].
With `NC(=O)c1ccc(NCC2COc3ccccc3O2)c([N+](=O)[O-])c1` (centres undefined) the Potency was inconclusive: 20 µM [inhibitor, single point].
In the case of `Cn1c(-c2ccc(Cl)nc2)nc2ccccc21`, the Potency is reported as inconclusive: 3.16 µM [activator, single point].
For `COc1cc(CCC(N)c2cccc(O)c2)cc(OC)c1OC` (centres undefined), the Potency was inconclusive: 0.355 µM [inhibitor, partial curve, poor fit].
With `OC1CCCN(Cc2cn(Cc3ccccc3)nc2-c2cc3ccccc3o2)C1` (centres undefined) the Potency was “inactive”.
With `O=C(Nc1ccc([N+](=O)[O-])cn1)c1cc(-c2cccc(Cl)c2)nc2ccccc12` the Potency was “inactive”.
For `CON1C(=O)C(=O)N(OC)C(C)(C)C1(C)C`, the Potency was “inactive”.
For `COc1cccc(C2=Nc3cccc4cccc(c34)N2)c1`, the Potency was “inactive”.

From PubChem BioAssay AID540256 (National Center for Advancing Translational Sciences (NCATS), 2011)
Potency is read from the fitted curve at half-maximal effect.
